Data on 37 molecules can be found in PubChem BioAssay AID2685 (National Center for Advancing Translational Sciences (NCATS), 2010).

This experiment in a line: qHTS Assay for Lipid Storage Modulators in Drosophila S3 Cells.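 For cell number change: cells counted by Cell Tracker Red CMTPX staining in the red channel.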 Particulars: BODIPY lipid droplet fluorescence, 18-24 h; for cell number change: measured here: cell count max response, cells fed with added oleic acid. An outline of the steps:
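Drosophila S3 cells got compounds at several concentrations plus oleic acid (400 uM solution). Laser-scanning cytometry with 488 nm excitation read lipid droplets at 500-530 nm and cells at 575-640 nm. Percent activity was relative to 20 uM Triacsin C.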
(In qHTS, concentration-response curves come from the screen itself.)

Setting [1] is: measured here: lipid fluorescence (Fed channel) AC50, cells fed with added oleic acid.
Setting [2] is: measured here: cell number channel AC50, cells fed with added oleic acid.

Some of the results follow. These are further read-outs of the screen, such as a control signal, another cell line or another target. No call is given for them. The list favours compounds with an active or inconclusive main result. Potencies come from curve fits of mixed quality, noted in brackets.

The AC50 is the concentration at which the activity in the assay is half-maximal. As to `CN(Cc1nc2ccccc2c(=O)[nH]1)C(=O)c1cccc(S(=O)(=O)N2CCCCCC2)c1`, the cell number change was 4.95%. Besides, the concentration at half-maximal activity (AC50) under setting [1] was 6.51 µM [rising, single point]. `CN(C)C(=O)COc1ccc(S(=O)(=O)c2ccc(OCC(=O)N(C)C)cc2)cc1`: the cell number change came out at 23.4%. Consider `O=C(c1cccs1)n1nc(NCc2ccccc2)nc1NCc1ccccc1`, for which the cell number change is -2.73%. The AC50 under setting [2] is 6.51 µM [rising, single point]. For the same molecule, the AC50 under setting [1] is 0.82 µM [rising, full curve]. As to `S=C(NCCCN1CCOCC1)Nc1ccc(-c2nc3ccccc3[nH]2)cc1`, the cell number change was determined as 83.5%. Further, the half-maximal activity concentration (AC50) under setting [2] was 5.17 µM [rising, full curve, poor fit]. Consider `CCN(CC)C(=O)CSc1nnc(-c2ccc(S(=O)(=O)N3CCOCC3)cc2)n1C`, for which the cell number change was -12.8%. Take `CC(Sc1nc2ccccc2[nH]1)C(=O)Nc1ccc2c(c1)OCCO2` (configuration not stated): the cell number change was -29.8%. Further, the concentration at half-maximal activity (AC50) under setting [2] was 3.26 µM [falling, full curve, poor fit].

Take `CN(Cc1cccc(F)c1)C(=O)c1ccc(S(=O)(=O)N2CCOCC2)cc1`: the cell number change was -3.88%. Moreover, under setting [1], the concentration at half-maximal activity (AC50) was 10.3 µM [falling, single point]. For `Cc1ccc(-n2ccc(=O)c(C(=O)O)n2)cc1`, the cell number change was 3.83%. Take `COc1ccc(C(C(=O)NC2CCCC2)N(C(=O)c2ccco2)c2ccccc2OC)cc1` (configuration not stated): the cell number change was 14.1%. Further, the AC50 under setting [1] was 29.1 µM [falling, single point]. Turning to `CC(=O)C1=C(C)NC(=O)CC1c1ccc(F)cc1` (configuration not stated), the cell number change is -44.1%. For the same molecule, under setting [2], the AC50 was 0.651 µM [falling, full curve, poor fit]. On to `CS(=O)(=O)N1CCN(c2ccccc2NC(=O)c2ccc3c(c2)OCCO3)CC1`, for which the cell number change was -12.7%. In addition, the AC50 under setting [1] was 7.31 µM [falling, partial curve].

Regarding `Nc1cc(C(=O)OCC(=O)NCCNC(=O)COC(=O)c2ccc(Cl)c(N)c2)ccc1Cl`, the cell number change came to 5.26%. Besides, the AC50 under setting [1] is 5.62 µM [rising, single point].

Turning to `CC(=O)NCCNC(=O)c1cccc(NS(=O)(=O)c2ccc3c(c2)OCCO3)c1`, the cell number change was 3.61%.

Take `COc1cc(/C=C(\C#N)C(=O)Nc2cccc3ncccc23)cc(OC)c1OC`: the cell number change is -11.6%. Further, the half-maximal activity concentration (AC50) under setting [1] is 16.4 µM [falling, single point]. As for `CCSCCOC(=O)C1=C(C)NC(=O)NC1c1ccccc1` (configuration not stated), the cell number change is -8.57%. Further, the AC50 under setting [2] is 0.731 µM [falling, full curve]. Moreover, under setting [1], the concentration at half-maximal activity (AC50) is 0.0259 µM [falling, full curve, poor fit]. Turning to `CC1(C)CC(=O)C=C(Nc2cccc(O)c2)C1`, the cell number change is -10.9%. For the same molecule, the AC50 under setting [1] was 4.61 µM [falling, partial curve, poor fit]. As to `Cn1cc([N+](=O)[O-])c(C(=O)Nc2ccc(C3CCCCC3)cc2)n1`, the cell number change is -29.4%. In addition, the AC50 under setting [1] is 18.4 µM [falling, single point]. Consider `CCOC(=O)Cc1c[nH]c2ccccc12`, for which the cell number change was determined as 16.7%. Moreover, the AC50 under setting [1] is 29.1 µM [rising, single point].

Regarding `CCCNC(=O)c1ccc2nc(-c3ccccc3)c(-c3ccccc3)nc2c1`, the AC50 under setting [2] is 6.51 µM [rising, single point] and the concentration at half-maximal activity (AC50) under setting [1] is 6.51 µM [rising, single point]. As to `Cc1cc(C)n(C(=O)c2ccncc2)n1`, the cell number change worked out at 5.72%. Also, under setting [1], the AC50 is 0.58 µM [rising, single point]. For `Cc1ccc(Sc2ncnc(N)c2[N+](=O)[O-])cc1`, the cell number change was -7.64%. For the same molecule, the AC50 under setting [1] was 3.26 µM [falling, partial curve, poor fit]. For `CC(C)C[C@H](NC(=O)c1nc[nH]c1C(=O)NCCCCCNC(=O)OC(C)(C)C)C(=O)OCc1ccccc1`, the cell number change was -31.8%. Moreover, the half-maximal activity concentration (AC50) under setting [1] is 29.1 µM [falling, single point]. Turning to `CCOC(=O)c1cccc(NC(=O)C2CCN(c3ncnc4c3nc3n4CCCCC3)CC2)c1`, the cell number change was -2.39%. Further, under setting [1], the AC50 is 29.1 µM [falling, single point].

As to `Cc1cc(OCC(=O)Nc2cc(-c3nn4c(C)nnc4s3)ccc2C)ccc1Cl`, under setting [1], the AC50 is 0.082 µM [rising, full curve, poor fit]. `O=C1c2ccccc2CCc2ccc(Br)cc21`: the cell number change is -7.57%. The AC50 under setting [1] is 4.11 µM [falling, single point]. For the molecule `CC(OC(=O)CN1C(=O)COc2ccccc21)C(=O)NCc1ccc(F)cc1` (configuration not stated), the cell number change was -3.85%. As to `CCCc1nnc(NC(=O)CCS(=O)(=O)c2ccccc2)s1`, the concentration at half-maximal activity (AC50) under setting [1] was 0.651 µM [falling, full curve].

With `CCOc1cc(/C=N/NC(=O)CSc2nnc(C)s2)ccc1OCc1ccccc1Cl`, the cell number change is -23.1%. Moreover, under setting [1], the half-maximal activity concentration (AC50) is 29.1 µM [falling, single point].

For the molecule `Cc1ccc(-c2nn(-c3ccccc3)cc2/C=C(\C#N)C(=O)NCc2ccccc2)cc1`, the cell number change is -37.7%. In addition, the half-maximal activity concentration (AC50) under setting [2] is 29.1 µM [falling, single point].

For the molecule `Cc1ccc(C)c(S(=O)(=O)N2CCN(CC(=O)Nc3ccc4c(c3)OCCO4)CC2)c1`, the cell number change worked out at 23%. Besides, the AC50 under setting [2] is 1.84 µM [falling, partial curve]. In addition, the concentration at half-maximal activity (AC50) under setting [1] is 29.1 µM [rising, single point]. Consider `O=C(CCN1CCOCC1)c1ccc2c(c1)OCCO2`, for which the cell number change is -72%. The concentration at half-maximal activity (AC50) under setting [2] was 18.4 µM [falling, single point]. The AC50 under setting [1] was 16.4 µM [falling, single point]. For `CC(C)Cn1c2nc3ccccc3nc2c2c(=O)n(CCN3CCOCC3)cnc21`, the cell number change was found to be 23.7%. Also, the AC50 under setting [1] was 0.206 µM [rising, full curve, poor fit]. As to `COc1ccccc1Nc1nc(-c2sc(NC(=O)C(C)(C)C)nc2C)cs1`, the half-maximal activity concentration (AC50) reads like this: under setting [2], 2.06 µM [falling, partial curve]; under setting [1], 2.31 µM [falling, partial curve]. As for `NNC(=O)c1oc2nc(-c3ccco3)cc(-c3ccco3)c2c1N`, the cell number change was 46.1%. The AC50 under setting [2] is 29.1 µM [rising, single point]. Moreover, the concentration at half-maximal activity (AC50) under setting [1] is 23.1 µM [falling, single point]. `Cc1cccc(NC(=S)NC2CC3CCCC(C2)N3Cc2cccs2)c1` (configuration not stated): the cell number change was -15.3%. Further, under setting [2], the half-maximal activity concentration (AC50) was 0.259 µM [falling, full curve, poor fit]. For `COc1ccc(CC(=O)Nc2ccc(-c3cn4cccc(C)c4n3)cc2)cc1OC`, the cell number change stood at 22.6%. Further, the AC50 under setting [2] was 0.461 µM [rising, full curve]. For the same molecule, the concentration at half-maximal activity (AC50) under setting [1] was 1.46 µM [rising, full curve]. Turning to `CCOC(=O)c1ccc(-c2csc(NC(=O)CN3CCC(C)CC3)n2)cc1`, the AC50 under setting [1] is 3.26 µM [falling, full curve].
